Laboratory results: PubChem BioAssay AID1224829 (NIAID, 2016)

- Screen: 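Follow-up of TLR4-NF-kappaB regulators using six separate siRNAs for each gene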 (follow-up of hits)
- System: mouse RAW264.7 G9 macrophage reporter cells
- Reagents: single siRNA against mouse genes, 100 nM
- Duration: 2 days of siRNA knock-down, then 40 min of LPS before fixing
- Treatment: LPS (Salmonella minnesota R595) at 10 ng/ml
- Read-out: 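High-content images after 40 min LPS exposure; GFP-p65 nucleus to surrounding ring signal ratio, normalised to plate median and non-targeting control wells, expressed as z-score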
- Direction: p65 translocation z-score and gene median z-score, per vendor: higher = more nuclear NF-kappaB p65 after LPS
- Call rule: 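Active means the replicate-mean z-score lies beyond plus or minus 2, in either direction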
- Calls: active = changed p65 translocation (either direction); inactive = no clear change
The deposit covers about 3,800 reagents; this is an unselected part. 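Calls cover raised and lowered translocation; gene median uses one vendor's three siRNAs; qiagen siRNAs acted more weakly than ambion siRNAs.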 Unmarked entries are inactive. The numbers tell different reagents against one gene apart.

Which result is listed for Bach2 (GeneID 12014) #1, siRNA vendor or control pool ambion single siRNA?
p65 translocation z-score, replicate mean: 0.0145; p65 translocation z-score, replicate 1: 0.382; p65 translocation z-score, replicate 2: -0.353; gene median z-score, per vendor: -0.301

With Bach2 (GeneID 12014) #2, siRNA vendor or control pool ambion single siRNA, what does the deposit list?
p65 translocation z-score, replicate mean: -1.07; p65 translocation z-score, replicate 1: -0.249; p65 translocation z-score, replicate 2: -1.9; gene median z-score, per vendor: -0.301

What did the screen give for Bach2 (GeneID 12014) #3, siRNA vendor or control pool ambion single siRNA?
p65 translocation z-score, replicate mean: -2.07 (active); p65 translocation z-score, replicate 1: -3.96; p65 translocation z-score, replicate 2: -0.169; gene median z-score, per vendor: -0.301

For Bach2 (GeneID 12014) #4, siRNA vendor or control pool qiagen single siRNA, how do the results read?
p65 translocation z-score, replicate mean: -0.368; p65 translocation z-score, replicate 1: -0.199; p65 translocation z-score, replicate 2: -0.537; gene median z-score, per vendor: -0.368

With Bach2 (GeneID 12014) #5, siRNA vendor or control pool qiagen single siRNA, what does the deposit list?
p65 translocation z-score, replicate mean: 1.4; p65 translocation z-score, replicate 1: 1.05; p65 translocation z-score, replicate 2: 1.75; gene median z-score, per vendor: -0.368

With Bach2 (GeneID 12014) #6, siRNA vendor or control pool qiagen single siRNA, what was measured?
p65 translocation z-score, replicate mean: -2.96 (active); p65 translocation z-score, replicate 1: -1.97; p65 translocation z-score, replicate 2: -3.96; gene median z-score, per vendor: -0.368

With Nhlrc2 (GeneID 66866) #1, siRNA vendor or control pool ambion single siRNA, how do the results read?
p65 translocation z-score, replicate mean: 2.6 (active); p65 translocation z-score, replicate 1: 2.73; p65 translocation z-score, replicate 2: 2.47; gene median z-score, per vendor: -3.68

For Nhlrc2 (GeneID 66866) #2, siRNA vendor or control pool ambion single siRNA, how do the results read?
p65 translocation z-score, replicate mean: -5.46 (active); p65 translocation z-score, replicate 1: -5.46; gene median z-score, per vendor: -3.68

For Nhlrc2 (GeneID 66866) #3, siRNA vendor or control pool ambion single siRNA, how do the results read?
p65 translocation z-score, replicate mean: -5.95 (active); p65 translocation z-score, replicate 1: -8.22; p65 translocation z-score, replicate 2: -3.68; gene median z-score, per vendor: -3.68

What is on record for Nhlrc2 (GeneID 66866) #4, siRNA vendor or control pool qiagen single siRNA?
p65 translocation z-score, replicate mean: 1.19; p65 translocation z-score, replicate 1: 0.039; p65 translocation z-score, replicate 2: 2.33; gene median z-score, per vendor: 0.381

Which result is listed for Nhlrc2 (GeneID 66866) #5, siRNA vendor or control pool qiagen single siRNA?
p65 translocation z-score, replicate mean: -0.0827; p65 translocation z-score, replicate 1: -0.324; p65 translocation z-score, replicate 2: 0.159; gene median z-score, per vendor: 0.381

With Nhlrc2 (GeneID 66866) #6, siRNA vendor or control pool qiagen single siRNA, how do the results read?
p65 translocation z-score, replicate mean: 0.751; p65 translocation z-score, replicate 1: 0.603; p65 translocation z-score, replicate 2: 0.899; gene median z-score, per vendor: 0.381

Just “p65 translocation z-score, replicate 2”, for 4 of the entries above:
Bach2 (GeneID 12014) #2, siRNA vendor or control pool ambion single siRNA	-1.9
Bach2 (GeneID 12014) #3, siRNA vendor or control pool ambion single siRNA	-0.169 (active)
Bach2 (GeneID 12014) #4, siRNA vendor or control pool qiagen single siRNA	-0.537
Bach2 (GeneID 12014) #5, siRNA vendor or control pool qiagen single siRNA	1.75

Next reagents:
For Gclm (GeneID 14630) #1, siRNA vendor or control pool ambion single siRNA, what was measured?
p65 translocation z-score, replicate mean: -0.153; p65 translocation z-score, replicate 1: -0.574; p65 translocation z-score, replicate 2: 0.268; gene median z-score, per vendor: -0.281

With Gclm (GeneID 14630) #2, siRNA vendor or control pool ambion single siRNA, how do the results read?
p65 translocation z-score, replicate mean: 0.275; p65 translocation z-score, replicate 1: 0.537; p65 translocation z-score, replicate 2: 0.0116; gene median z-score, per vendor: -0.281

How did the screen score Gclm (GeneID 14630) #3, siRNA vendor or control pool ambion single siRNA?
p65 translocation z-score, replicate mean: -2.08 (active); p65 translocation z-score, replicate 1: -1.09; p65 translocation z-score, replicate 2: -3.07; gene median z-score, per vendor: -0.281

For Gclm (GeneID 14630) #4, siRNA vendor or control pool qiagen single siRNA, what was measured?
gene median z-score, per vendor: -1.45

How did the screen score Gclm (GeneID 14630) #5, siRNA vendor or control pool qiagen single siRNA?
p65 translocation z-score, replicate mean: -1.06; p65 translocation z-score, replicate 1: -0.672; p65 translocation z-score, replicate 2: -1.45; gene median z-score, per vendor: -1.45

Which result is listed for Gclm (GeneID 14630) #6, siRNA vendor or control pool qiagen single siRNA?
p65 translocation z-score, replicate mean: -3.99 (active); p65 translocation z-score, replicate 1: -3.99; gene median z-score, per vendor: -1.45

For Acot9 (GeneID 56360) #1, siRNA vendor or control pool ambion single siRNA, what was measured?
p65 translocation z-score, replicate mean: 0.407; p65 translocation z-score, replicate 1: 1.63; p65 translocation z-score, replicate 2: -0.811; gene median z-score, per vendor: -1.61

For Acot9 (GeneID 56360) #2, siRNA vendor or control pool ambion single siRNA, what does the deposit list?
p65 translocation z-score, replicate mean: -4.33 (active); p65 translocation z-score, replicate 1: -4.9; p65 translocation z-score, replicate 2: -3.76; gene median z-score, per vendor: -1.61

With Acot9 (GeneID 56360) #3, siRNA vendor or control pool ambion single siRNA, what was measured?
p65 translocation z-score, replicate mean: -1.61; p65 translocation z-score, replicate 1: -1.04; p65 translocation z-score, replicate 2: -2.17; gene median z-score, per vendor: -1.61

What did the screen give for Acot9 (GeneID 56360) #4, siRNA vendor or control pool qiagen single siRNA?
p65 translocation z-score, replicate mean: 1.49; p65 translocation z-score, replicate 1: 0.0523; p65 translocation z-score, replicate 2: 2.92; gene median z-score, per vendor: -1.59

Which result is listed for Acot9 (GeneID 56360) #5, siRNA vendor or control pool qiagen single siRNA?
p65 translocation z-score, replicate mean: -4.11 (active); p65 translocation z-score, replicate 1: -4.11; gene median z-score, per vendor: -1.59

Which result is listed for Acot9 (GeneID 56360) #6, siRNA vendor or control pool qiagen single siRNA?
p65 translocation z-score, replicate mean: -2.6 (active); p65 translocation z-score, replicate 1: -1.59; p65 translocation z-score, replicate 2: -3.6; gene median z-score, per vendor: -1.59

For Or10q12 (GeneID 258341) #1, siRNA vendor or control pool ambion single siRNA, what does the deposit list?
p65 translocation z-score, replicate mean: 0.806; p65 translocation z-score, replicate 1: -0.261; p65 translocation z-score, replicate 2: 1.87; gene median z-score, per vendor: -0.763

What did the screen give for Or10q12 (GeneID 258341) #2, siRNA vendor or control pool ambion single siRNA?
p65 translocation z-score, replicate mean: -1.95; p65 translocation z-score, replicate 1: -2.66; p65 translocation z-score, replicate 2: -1.23; gene median z-score, per vendor: -0.763

With Or10q12 (GeneID 258341) #3, siRNA vendor or control pool ambion single siRNA, what was measured?
p65 translocation z-score, replicate mean: -1.36; p65 translocation z-score, replicate 1: -2.43; p65 translocation z-score, replicate 2: -0.3; gene median z-score, per vendor: -0.763

With Or10q12 (GeneID 258341) #4, siRNA vendor or control pool qiagen single siRNA, how do the results read?
p65 translocation z-score, replicate mean: 0.194; p65 translocation z-score, replicate 1: -0.601; p65 translocation z-score, replicate 2: 0.989; gene median z-score, per vendor: 0.031

What is on record for Or10q12 (GeneID 258341) #5, siRNA vendor or control pool qiagen single siRNA?
p65 translocation z-score, replicate mean: 0.531; p65 translocation z-score, replicate 1: 0.354; p65 translocation z-score, replicate 2: 0.708; gene median z-score, per vendor: 0.031

With Or10q12 (GeneID 258341) #6, siRNA vendor or control pool qiagen single siRNA, what was measured?
p65 translocation z-score, replicate mean: -0.757; p65 translocation z-score, replicate 1: -0.292; p65 translocation z-score, replicate 2: -1.22; gene median z-score, per vendor: 0.031
